Results deposited as PubChem BioAssay AID1259405 (NCATS, 2018).
Shown is one part, drawn at random, of about 50,000 deposited reagents. About 4,000 of them (8%) were called active. 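Mouse siRNA library applied to hamster cells; one well for each siRNA.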 A number with no mark means an inactive call.

Purpose: 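Knock-downs that lift recombinant protein yield in hamster ovary cells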 (primary screen)
Cells: Chinese hamster CHO-K1 ovary cells with stable secreted eGFP expression
Reagents: single siRNA against mouse genes, 0.8 pmol siRNA per well (2 µl of 400 nM stock)
Duration: 3 days
Read-out: 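Per-well intracellular GFP measured by laser scanning cytometry, plus viability from ATP luminescence, each relative to plate median of non-targeting control wells, in %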
Direction: GFP, % of control: higher = more GFP per well, higher productivity; viability (ATP), % of control: higher = more viable cells (more ATP)
Active means: 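a knock-down is called active if GFP reaches 120% or more of non-targeting control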

For Slit3 [SID363568712], the values are GFP, % of control 81.8; viability (ATP), % of control 97.3. Silencing of Slit3 [SID363576104] gave: GFP, % of control 69.7; viability (ATP), % of control 52.1. For Slit3 [SID363578920], the values are GFP, % of control 109; viability (ATP), % of control 90.5. With knock-down of Cdc45 [SID363569429], the screen gave GFP, % of control 92.8; viability (ATP), % of control 94.9. With knock-down of Cdc45 [SID363577173], the screen gave GFP, % of control 67.5; viability (ATP), % of control 57.2. Cdc45 [SID363578581] scored GFP, % of control 56.5; viability (ATP), % of control 58.1.

Hspa12a [SID363540448] scored GFP, % of control 48; viability (ATP), % of control 50.4. For Hspa12a [SID363542200], the values are GFP, % of control 79; viability (ATP), % of control 76.4. Hspa12a [SID363567116] gave GFP, % of control 81.8; viability (ATP), % of control 88.5. Knock-down of Jchain [SID363540349] gave: GFP, % of control 84.3; viability (ATP), % of control 79.6. Jchain [SID363542101] gave GFP, % of control 66.1; viability (ATP), % of control 47.3. Against Jchain [SID363567017], the values are GFP, % of control 64.6; viability (ATP), % of control 86.7.

With knock-down of Tbc1d5 [SID363545439] the results were GFP, % of control 61.1; viability (ATP), % of control 52.5. After knock-down of Tbc1d5 [SID363548952], the record shows GFP, % of control 41.8; viability (ATP), % of control 33.4. Depletion of Tbc1d5 [SID363562758] came out at: GFP, % of control 88.1; viability (ATP), % of control 89.9. Against Oprm1 [SID363571206] the deposit lists GFP, % of control 111; viability (ATP), % of control 74.8. Oprm1 [SID363571558] gave GFP, % of control 94.4; viability (ATP), % of control 63.2. For Oprm1 [SID363571910] the deposit lists GFP, % of control 18.4; viability (ATP), % of control 20.

Part of the list above, reduced to “viability (ATP), % of control”.
Slit3 [SID363578920]: 90.5
Cdc45 [SID363569429]: 94.9
Cdc45 [SID363577173]: 57.2
Cdc45 [SID363578581]: 58.1
Hspa12a [SID363540448]: 50.4

Additional records:
After knock-down of Zfp879 [SID363555374], the record shows GFP, % of control 65.5; viability (ATP), % of control 94.3. Depletion of Zfp879 [SID363564035] gave: GFP, % of control 42.6; viability (ATP), % of control 69.6. After knock-down of Zfp879 [SID363587581], the record shows GFP, % of control 76.9; viability (ATP), % of control 121. B3gnt4 [SID363570659] scored GFP, % of control 150 (active); viability (ATP), % of control 94. B3gnt4 [SID363579459] gave GFP, % of control 87.8; viability (ATP), % of control 131. For B3gnt4 [SID363583331] the deposit lists GFP, % of control 78.2; viability (ATP), % of control 100.

Npm3 [SID363582341] showed GFP, % of control 82.3; viability (ATP), % of control 137. Npm3 [SID363584101] gave GFP, % of control 94.7; viability (ATP), % of control 81.1. After knock-down of Gart [SID363572784] the results were GFP, % of control 55.7; viability (ATP), % of control 76. After knock-down of Gart [SID363578064], the screen gave GFP, % of control 42.9; viability (ATP), % of control 55.5. Gart [SID363582288] gave GFP, % of control 64.2; viability (ATP), % of control 128.
